Values from PubChem BioAssay AID1508588 (Peter MacCallum Cancer Centre, 2020)
Shown is an unselected part of about 18,000 deposited reagents. 790 of all reagents (4.4%) count as active. 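Calls rest on a combination of fold-change classes in drug and vehicle arms, not all shown here.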 Unmarked entries are inactive. No sequences are given here.

Aim: 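Which gene losses make BRAF-mutant melanoma cells more responsive to vemurafenib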 (primary screen)
Cell system: human WM266.4 melanoma cells (BRAF V600 mutant)
Knock-down reagent: siRNA pool against human genes, 40 nM
Timing: 96 h from transfection to read-out
Treatment: vemurafenib 300 nM (about IC25), added 48 h after transfection, for 48 h; comparison arm got DMSO vehicle only
Detection: 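Cell gain (DAPI nuclei at end minus before drug, mean of two replicates) and medium lactate by absorbance per cell, both as ratio to non-targeting siRNA, also grouped into fold-change classes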
Direction: cell gain with vemurafenib: higher = more cell gain than with non-targeting siRNA; lactate per cell with vemurafenib: higher = more lactate made per cell
Rule for the call: 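a knock-down counts as enhancing when its fold-change classes with vehicle and with vemurafenib, taken together, show a stronger drug effect on cell gain or lactate per cell; exact class pairs not stated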
Calls: active = enhances vemurafenib effect; inactive = no enhancement seen

Target gene	cell gain with vemurafenib	lactate per cell with vemurafenib
PPP2R3A (protein phosphatase 2 regulatory subunit B''alpha)	0.4	1.54
SPATA4 (spermatogenesis associated 4)	1.09	0.99
ADAMTS7 (ADAM metallopeptidase with thrombospondin type 1 motif 7)	0.49	1.13
WDR73 (WD repeat domain 73)	1.12	0.8
TREM1 (triggering receptor expressed on myeloid cells 1)	0.2	0.8
IPO9 (importin 9)	0.54 (active)	0.32
CTRC (chymotrypsin C)	0.05	0.76
RNASEH2B (ribonuclease H2 subunit B)	0.83	0.94
GJD4 (gap junction protein delta 4)	0.68	0.61
ETFB (electron transfer flavoprotein subunit beta)	0.59	0.59
MAGEB2 (MAGE family member B2)	0.72	1.12
TOM1 (target of myb1 membrane trafficking protein)	0.17	2.46
ILDR2 (immunoglobulin like domain containing receptor 2)	0.94	0.76
GABPB1 (GA binding protein transcription factor subunit beta 1)	0.56	0.95
METTL22 (methyltransferase 22, Kin17 lysine)	0.08	1.23
PIPOX (pipecolic acid and sarcosine oxidase)	0.38	0.24
PPME1 (protein phosphatase methylesterase 1)	0.62	0.78
NHERF2 (NHERF family PDZ scaffold protein 2)	1.17	0.41
STT3A (STT3 oligosaccharyltransferase complex catalytic subunit A)	0.1	0.22
METAP1 (methionyl aminopeptidase 1)	0.68	1.04
PTH2 (parathyroid hormone 2)	0.37	0.54
STPG1 (sperm tail PG-rich repeat containing 1)	0.27	2.06
VIM (vimentin)	0.57	0.75
KCNK7 (potassium two pore domain channel subfamily K member 7)	0.88	1.15
TSPAN14 (tetraspanin 14)	0.64	1.19
HERPUD1	0.39	1.15
SERGEF (secretion regulating guanine nucleotide exchange factor)	0.57	0.64
RNF141 (ring finger protein 141)	0.94	0.54
FAM133B (family with sequence similarity 133 member B)	0.62	1.07
PTPRT (protein tyrosine phosphatase receptor type T)	1	0.76
ERO1A (endoplasmic reticulum oxidoreductase 1 alpha)	0.74	1.06
TRIML2 (tripartite motif family like 2)	0.6	0.17
CXCL6 (C-X-C motif chemokine ligand 6)	0.16	0.6
CDS1 (CDP-diacylglycerol synthase 1)	0.4	0.89
ZNF189 (zinc finger protein 189)	0.56	1.31
DDX23 (DEAD-box helicase 23)	0.26	1.51
SLC9C1	0.01	0.93
HS6ST2 (heparan sulfate 6-O-sulfotransferase 2)	1.01	0.46
DENND3 (DENN domain containing 3)	0.33	1.12
ANAPC10 (anaphase promoting complex subunit 10)	0.53	0.92
ZNF567 (zinc finger protein 567)	0.19	0.72
GCHFR (GTP cyclohydrolase I feedback regulator)	0.36	1.53
JHY (junctional cadherin complex regulator)	0.25	1.79
BBLN (bublin coiled coil protein)	0.47	0.87
RIPPLY3 (ripply transcriptional repressor 3)	0.91	0.52
SDS (serine dehydratase)	0.6	0.78
SEMA3D (semaphorin 3D)	0.7	0.94
LDB3 (LIM domain binding 3)	0.12	1.59
NRXN2 (neurexin 2)	0.57	0.55
MYO9A (myosin IXA)	0.22	1.05
TMEM129 (transmembrane protein 129, E3 ubiquitin ligase)	0.69	1.67
MAGEA12 (MAGE family member A12)	0.85	0.72
OR11H6 (olfactory receptor family 11 subfamily H member 6)	0.03	0.33
LANCL1 (LanC like glutathione S-transferase 1)	0.43	1.23
STIL (STIL centriolar assembly protein)	0.6	2
THAP2 (THAP domain containing 2)	0.76 (active)	0.68
USP27X (ubiquitin specific peptidase 27 X-linked)	0.24	1.48
